# Measured values taken from PubChem BioAssay AID1347076 (National Center for Advancing Translational Sciences (NCATS), 2019).
# Out of some 400,000 compounds screened, about 13,000 (3.2%) were called active. The shares of active, inactive and inconclusive entries below differ from those in the screen. Calls follow the shape of the dose curve; as a rule, active = well fitted cell-killing curve with a large enough effect; inconclusive = small, poorly fitted or top-dose-only effect, or effect the other way; inactive = flat fitted curve, though single readings scatter. A potency beside an inconclusive call is a rough fit, not a confirmed value.
# Experiment: qHTS assay for MDR1-selective chemotherapeutics: Primary screen using the drug-selected MDR subline cells KB-V1; also: nearly all actives have a fitted effect of over 60% in size
# Details: KB-V1 MDR cells viability, CellTiter-Glo, 72 h; activity change, negative = cytotoxicity: at 46.1 µM (top of the series)
# Summary of the method: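 Cells of the MDR subline KB-V1 are plated, dosed with compound at multiple concentrations, and incubated 72 h at 37 degrees C; CellTiter-Glo is then added and luminescence read after 10 min.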
# % is scaled to controls: 0 for no effect and ±100 for the full control effect; potency is read from the fitted curve at half-maximal effect.
Compound,Potency,"activity change, negative = cytotoxicity"
Cc1ccc(CNC(=O)C(NS(=O)(=O)c2cccc3nsnc23)c2ccccc2)cc1 (stereo not given),"inconclusive: 8.2 µM [cytotoxic, partial curve]",–
O=C(CN1CCN(c2ccccn2)CC1)Nc1ccc(Oc2ccccc2)cc1,"inconclusive: 16.4 µM [cytotoxic, single point]",–
O=C(O)c1cc2nc3c(c(C(F)(F)F)n2n1)CCCC3,"inconclusive: 9.2 µM [rising, single point]",–
C=CCOC(=O)C(=O)/C=C/c1csc2ccccc12,"inconclusive: 23.1 µM [rising, single point]",–
CCCCCCCCN1C(=O)[C@H](CC(=O)NCCC(C)C)C[C@@]2(C(=O)OCC)CCCC=C12,"inconclusive: 16.4 µM [cytotoxic, single point]",–
CCOc1ccc2oc(C(=O)OC(C(=O)NC(N)=O)C(C)C)c(C)c2c1 (stereo not given),"inconclusive: 18.4 µM [rising, partial curve, poor fit]",–
CCCc1nc2ccccc2c(C(=O)OC2CCOC2=O)c1CC (stereo not given),"inconclusive: 29.1 µM [rising, single point]",–
COc1ccc(NC(=O)CCNC(=O)c2ccco2)cc1Cl,inactive,–
CCOc1ccc(NC(=S)NCCCN2CCN(c3ccc(OC)cc3)CC2)cc1,"inconclusive: 5.8 µM [cytotoxic, partial curve, poor fit]",–
CC(=O)Nc1nnc(-c2c(-c3c(Cl)cccc3Cl)noc2C)o1,"inconclusive: 13 µM [cytotoxic, partial curve]",–
COc1ccc(C2c3c(oc4cc(C)cc(C)c4c3=O)C(=O)N2Cc2ccco2)cc1OC (stereo not given),"inconclusive: 29.1 µM [rising, single point]",–
CCC(C)N(C(=O)Cn1nnc2ccccc21)C(C(=O)Nc1ccc(F)cc1)c1cccc(OC)c1 (stereo not given),"inconclusive: 29.1 µM [cytotoxic, single point]",–
O=C(c1ccoc1)N1CCCC(N2CCN(c3cccc(Cl)c3)CC2)C1 (stereo not given),inactive,–
COc1cc(C(=O)Nc2scc(-c3ccccc3)c2C(=O)O)cc(OC)c1OC,"inconclusive: 0.731 µM [rising, full curve, poor fit]",–
CC(=O)Nc1ncc(Cc2ccc(Cl)cc2Cl)s1,inactive,–
COc1ccc(Cl)cc1NC(=O)Cn1c(C)csc1=O,"inconclusive: 20.6 µM [cytotoxic, partial curve, poor fit]",–
COc1ccc(-c2csc(NC(=O)C3CCCCN3S(=O)(=O)c3ccccc3)n2)cc1 (stereo not given),inactive,–
COc1ccc(NC(=S)NC(NC(=O)c2cccc(Cl)c2)C(Cl)(Cl)Cl)c([N+](=O)[O-])c1 (stereo not given),"inconclusive: 23.1 µM [cytotoxic, single point]",–
Cc1cccc(NC(=O)CCN2C(=O)c3cccc([N+](=O)[O-])c3C2=O)c1,"inconclusive: 25.9 µM [rising, single point]",–
CC(=O)c1ccc(NC(=O)C2CCC(C)(C(=O)O)C2(C)C)cc1 (stereo not given),inactive,–
CCOc1ccc(OCC)c(NC(=O)CSc2nc3ccccc3c(=O)n2C)c1,inactive,–
O=C(C1CCCCC1)N1C[C@@H](O)[C@H](n2cc(-c3ccc(F)cc3)nn2)C[C@@H]1c1ccc(Cl)cc1,"inconclusive: 29.1 µM [cytotoxic, single point]",–
O=C(Cc1ccccc1)Nc1ccc(NC(=O)c2cccs2)cc1Cl,inactive,–
CCOC(=O)N1CCN(CC(=O)Nc2c(C(=O)OC)[nH]c3cc(C)ccc23)CC1,inactive,–

Compound,Potency,"activity change, negative = cytotoxicity"
CCCC1=C(C(=O)OCC)C(c2ccc(N(C)C)cc2)n2ncnc2N1 (stereo not given),active: 18.4 µM,–
CN(C(=O)CSc1nnc(CN2CCCC2)n1Cc1ccccc1)c1ccccc1,"inconclusive: 14.6 µM [cytotoxic, partial curve]",–
O=C(NCc1ccncc1)[C@@H]1CCCN1C(=O)[C@@H]1CCCN1C(=O)c1cccc2ccccc12,inactive,–
COc1cccc(CN2CCNC(=O)C2CC(=O)NCCCN2CCCC2=O)c1 (stereo not given),–,inconclusive: 52.3%
CS(=O)(=O)N1N=C(c2ccc3nccnc3c2)CC1c1ccccc1 (stereo not given),"inconclusive: 13 µM [cytotoxic, partial curve]",–
CCc1cc2ccc(C)cc2nc1SCC(=O)Nc1cc(OC)c(OC)cc1C(=O)O,"inconclusive: 29.1 µM [cytotoxic, single point]",–
CNc1cncc(-c2ccc(CN3CCOCC3)cc2)n1,"inconclusive: 29.1 µM [cytotoxic, single point]",–
C[N+]1(CCOc2ccc([N+](=O)[O-])cc2)CCOCC1,"inconclusive: 14.6 µM [rising, partial curve]",–
COc1ccc(S(=O)(=O)NC(C)C)cc1-n1cnnn1,"inconclusive: 23.1 µM [rising, single point]",–
NC(=NCc1ccccc1)NN=Cc1ccnc2ccccc12,"inconclusive: 25.9 µM [cytotoxic, single point]",–
O=C(C(Cc1ccccc1)N1C(=O)c2ccccc2C1=O)N1c2ccccc2CCc2ccccc21 (stereo not given),"inconclusive: 29.1 µM [cytotoxic, single point]",–
Cc1occc1-c1nnc(SCC(=O)N2CCOCC2)o1,"inconclusive: 25.9 µM [rising, single point]",–
CN(C)c1ccc(-c2nc3ccccc3n2C)cc1,"inconclusive: 32.6 µM [cytotoxic, single point]",–
CCc1ccc(OCC(=O)N2CC(C(N)=O)Oc3ccccc32)cc1 (stereo not given),inactive,–
Cc1ccc(N=Nc2c(C)[nH]n(C(N)=S)c2=O)cc1,inactive,–
COc1ccc2cc3cc(C(=O)N4CCCCC4C)oc3nc2c1 (stereo not given),"inconclusive: 0.0164 µM [cytotoxic, full curve]",–
CCc1ccc(OCC(=O)N/N=C(\C)c2ccccc2OC(F)F)cc1,active: 16.4 µM,–
CCC(C)OC(=O)C1=C(C)NC2=C(C(=O)C(C(=O)OC)C(C)C2)C1c1ccc(N(C)C)cc1 (stereo not given),"inconclusive: 5.8 µM [cytotoxic, partial curve, poor fit]",–
O=[N+]([O-])c1ccc(/C=N/n2c(-c3cccnc3)n[nH]c2=S)cc1,–,inconclusive: -9.34%
CC(C)=NNc1nc(-c2ccccc2)c(C)s1,inactive,–
O=C(c1ccccc1Oc1ccccc1)N1CCN(c2ccc(F)cc2)CC1,"inconclusive: 14.6 µM [cytotoxic, partial curve, poor fit]",–
COc1ccc(Br)cc1CNC(=O)CN1C(=O)CCCc2ccccc21,"inconclusive: 29.1 µM [cytotoxic, partial curve, poor fit]",–
Cc1ccc(C(=O)N2CCCC(C(F)(F)F)C2)cc1S(=O)(=O)N1CCCCC1 (stereo not given),"inconclusive: 8.2 µM [cytotoxic, partial curve]",–
CCCS(=O)(=O)N1CCC(C(=O)NCCN(C)Cc2ccccc2)CC1,inactive,–

# 2 entries from above in a different format.
Compound | Potency | activity change, negative = cytotoxicity
CCCc1nc2ccccc2c(C(=O)OC2CCOC2=O)c1CC (stereo not given) | inconclusive: 29.1 µM [rising, single point] | –
COc1ccc(NC(=O)CCNC(=O)c2ccco2)cc1Cl | inactive | –

# The list continues.

Compound,Potency,"activity change, negative = cytotoxicity"
CC(C)(C)NC(=O)C(c1ccc(C#N)cc1)n1c(=O)c(-c2ccco2)nc2ccccc21 (stereo not given),inactive,–
CCOc1ccc(CC(=O)N2CCC3(CC2)NCCc2[nH]cnc23)cc1,inactive,–
CC(C)(C)c1ccc(C(=O)CSc2n[nH]c(=O)[nH]c2=O)cc1,"inconclusive: 16.4 µM [cytotoxic, single point]",–
CCOC(=O)C1=NOC(CNC(=O)c2ccccc2Cl)C1 (stereo not given),"inconclusive: 20.6 µM [rising, single point]",–
O=C(c1ccc2c(c1)CCN2S(=O)(=O)c1ccc(Cl)cc1)N1CCN(c2ccccc2F)CC1,inactive,–
Cc1ccc(-n2cc3c(-c4cccc(Br)c4)nnc(C)c3n2)cc1,active: 16.4 µM,–
Cc1nn(-c2ccccc2)c2c1C(O)n1c(nc3ccccc31)S2 (stereo not given),active: 18.4 µM,–
CCN(CC)S(=O)(=O)c1ccc(/C(O)=C(\C#N)c2nc3ccccc3n2C)cc1,"inconclusive: 4.11 µM [cytotoxic, full curve, poor fit]",–
COc1ccc(Nc2ncc(C(=O)N3CCN(c4ccc(OC)cc4)CC3)c3ccccc23)cc1,"inconclusive: 23.1 µM [cytotoxic, single point]",–
Cc1cc2ncc(-c3ccc(Cl)cc3)c(N)n2n1,"inconclusive: 23.1 µM [cytotoxic, single point]",–
CCCCNC(=O)c1cnc2sc(N3CCCCC3)nn2c1=O,inactive,–
CC(C)C(=O)N1CCC1(C)C(=O)Nc1ccc2cn[nH]c2c1 (stereo not given),"inconclusive: 29.1 µM [cytotoxic, single point]",–
COc1cc(NC(=O)c2cccc(Cl)c2)c(OC)cc1NC(=O)CN1CCOCC1,inactive,–
O=C(NCCSc1c[nH]c2ccccc12)c1ccco1,"inconclusive: 3.66 µM [rising, partial curve, poor fit]",–
Cc1nc(SCC(=O)Nc2ccccc2C(F)(F)F)c2c(=O)n(C)c(=O)n(C)c2n1,"inconclusive: 29.1 µM [cytotoxic, single point]",–
CCCCn1nnnc1C1(C)CCC(=O)N1CCc1ccccc1F (stereo not given),"inconclusive: 14.6 µM [cytotoxic, single point]",–
Cc1cc(OC(C)C(=O)N2CCN(CCc3ccccn3)CC2)ccc1Cl (stereo not given),"inconclusive: 6.51 µM [cytotoxic, partial curve, poor fit]",–
COc1ccc(C)cc1NC(=O)CCNS(=O)(=O)c1ccc2c(c1)CCC(=O)N2,"inconclusive: 4.11 µM [rising, partial curve, poor fit]",–
CCOc1cc(/C=N/NC(=O)c2ccncc2)ccc1OC(=O)c1ccccc1,"inconclusive: 32.6 µM [rising, single point]",–
COc1ccc(S(=O)(=O)N2CCC(NC(=O)Nc3ccc(C)cc3)CC2)cc1,active: 18.4 µM,–
COC(=O)c1cc(C#N)c(N2CCN(C)CC2)nc1C,inactive,–
CN(C)c1ccc(CN2CCc3nc(N4CCN(c5ccccn5)CC4)ncc3C2)cc1,"inconclusive: 13 µM [cytotoxic, partial curve, poor fit]",–
